The list is a part of this screen's results and no random one: it gathers tests that were run many times, whatever their T/C, doses with no T/C, and many T/C values between a quarter and a half above the control. Other doses and runs of a compound stand elsewhere. T/C: endpoint of the treated group in % of that of the vehicle group. Some doses have a count of surviving animals in place of a T/C: the source files T/C as zero there, which appears to mark a toxic dose or a test without result, not a measured value. Some survivor counts are full or nearly so, which does not show that the dose was tolerated: survival well below the control is almost never listed, so the zero probably covers shortened survival too. Survivors were counted at the toxicity check, usually on the fifth day, unless a day is given; later deaths do not show. Schedule codes are those of the source, read here as Q, the interval in days (D) or hours (H), X, the number of doses. Some structures stand for samples that the source files as different forms (salt, stereo form or complex); doses refer to the form tested. Some schedule codes hold Z or #, which are not explained here. For survival time, the PubChem record calls one and a half times the control and up active, and a quarter to a half above the control has no call in these data; cut-offs in other NCI protocols can differ.
System: L1210 leukemia ip in BDF1 mice, survival T/C
Test: NCI In Vivo Anticancer Drug Screen. Data for tumor model L1210 Leukemia (intraperitoneal) in B6D2F1 (BDF1) mice
Conditions: higher T/C = longer survival
[1] = T/C endpoint: mean survival time, dose: 400.0 mg/kg/injection, schedule: Q04DX003 (ip), vehicle: saline
[2] = T/C endpoint: mean survival time, dose: 200.0 mg/kg/injection, schedule: Q04DX003 (ip), vehicle: saline with Tween-80
[3] = T/C endpoint: mean survival time, dose: 400.0 mg/kg/injection, schedule: Q01DX001 (ip), vehicle: saline
[4] = T/C endpoint: mean survival time, dose: 100.0 mg/kg/injection, schedule: Q01DX009 (ip), vehicle: saline with Tween-80
[5] = T/C endpoint: mean survival time, dose: 200.0 mg/kg/injection, schedule: Q04DX003 (ip), vehicle: Klucel (hydroxypropylcellulose) (HPC)
[6] = T/C endpoint: mean survival time, dose: 400.0 mg/kg/injection, schedule: Q04DX002 (ip), vehicle: saline with Tween-80

`CCC[CH2][Sn]([CH2]CCC)([S]C#N)[S]C#N` was tested, and the survivor count (T/C endpoint: mean survival time, dose: 12.5 mg/kg/injection, schedule: Q04DX002 (ip), vehicle: gum acacia) was 3 of 3, the survivor count (T/C endpoint: mean survival time, dose: 25.0 mg/kg/injection, schedule: Q04DX002 (ip), vehicle: gum acacia) was 3 of 3 and the survivor count (T/C endpoint: mean survival time, dose: 50.0 mg/kg/injection, schedule: Q04DX002 (ip), vehicle: gum acacia) was 1 of 3. For the same molecule, the survivor count (T/C endpoint: mean survival time, dose: 100.0 mg/kg/injection, schedule: Q04DX002 (ip), vehicle: gum acacia) was 0 of 3, the survivor count (T/C endpoint: mean survival time, dose: 200.0 mg/kg/injection, schedule: Q04DX002 (ip), vehicle: gum acacia) was 0 of 3 and the survivor count (T/C endpoint: mean survival time, dose: 400.0 mg/kg/injection, schedule: Q04DX002 (ip), vehicle: gum acacia) was 0 of 3.
`CS(=O)(=O)c1ccc2nnnn2n1` was tested, and the survivor count (T/C endpoint: mean survival time, dose: 50.0 mg/kg/injection, schedule: Q04DX003 (ip), vehicle: saline) was 1 of 4, the survivor count (T/C endpoint: mean survival time, dose: 100.0 mg/kg/injection, schedule: Q04DX003 (ip), vehicle: saline) was 0 of 4 and the survivor count (T/C endpoint: mean survival time, dose: 200.0 mg/kg/injection, schedule: Q04DX003 (ip), vehicle: saline) was 0 of 4.
For `Oc1ccc(Sc2ccc(O)cc2)cc1`, the survivor count [1] was 2 of 6.
With `COc1cc([C@@H]2c3cc4c(cc3C[C@H]3COC(=O)[C@@H]32)OCO4)cc(OC)c1OC` the survivor count (T/C endpoint: mean survival time, dose: 30.0 mg/kg/injection, schedule: Q01DX009 (ip), vehicle: saline) was 2 of 6, the survivor count (T/C endpoint: mean survival time, dose: 40.0 mg/kg/injection, schedule: Q01DX009 (ip), vehicle: saline) was 2 of 6 and the survivor count (T/C endpoint: mean survival time, dose: 50.0 mg/kg/injection, schedule: Q01DX009 (ip), vehicle: saline) was 5 of 6. For the same molecule, the T/C (T/C endpoint: mean survival time, dose: 67.0 mg/kg/injection, schedule: Q01DX001 (ip), vehicle: saline) was 133 % of control, the survivor count (T/C endpoint: mean survival time, dose: 100.0 mg/kg/injection, schedule: Q01DX001 (ip), vehicle: saline with Tween-80) was 1 of 6 and the T/C (T/C endpoint: mean survival time, dose: 100.0 mg/kg/injection, schedule: Q01DX001 (ip), vehicle: saline) was 139 % of control. The T/C (T/C endpoint: mean survival time, dose: 100.0 mg/kg/injection, schedule: Q04DX003 (ip), vehicle: saline with Tween-80) was 133 % of control, the survivor count (T/C endpoint: mean survival time, dose: 150.0 mg/kg/injection, schedule: Q01DX001 (ip), vehicle: saline) was 2 of 6 and the survivor count (T/C endpoint: mean survival time, dose: 200.0 mg/kg/injection, schedule: Q01DX001 (ip), vehicle: other) was 0 of 6. For the same molecule, the survivor count (T/C endpoint: mean survival time, dose: 200.0 mg/kg/injection, schedule: Q01DX001 (ip), vehicle: saline with Tween-80) was 2 of 6, the T/C (T/C endpoint: mean survival time, dose: 200.0 mg/kg/injection, schedule: Q01DX001 (ip), vehicle: saline) was 127 % of control and the survivor count [2] was 0 of 6. The survivor count [3] was 0 of 4 and the survivor count (T/C endpoint: median survival time, dose: 20.0 mg/kg/injection, schedule: Q01DX009 (ip), vehicle: saline) was 2 of 8.
`CN=C(NCc1ccccc1)c1ccc(NC(=O)c2ccc(C(=O)Nc3ccc(C(=NC)NCc4ccccc4)cc3)cc2)cc1` was tested, and the survivor count (T/C endpoint: mean survival time, dose: 15.0 mg/kg/injection, schedule: Q01DX Z (ip), vehicle: methylcellulose (MC)) was 0 of 6, the survivor count (T/C endpoint: mean survival time, dose: 30.0 mg/kg/injection, schedule: Q01DX Z (ip), vehicle: methylcellulose (MC)) was 0 of 6 and the survivor count (T/C endpoint: mean survival time, dose: 60.0 mg/kg/injection, schedule: Q01DX Z (ip), vehicle: methylcellulose (MC)) was 0 of 6. The survivor count (T/C endpoint: mean survival time, dose: 120.0 mg/kg/injection, schedule: Q01DX Z (ip), vehicle: methylcellulose (MC)) was 0 of 6.
For `CN=C(NCc1ccccc1)c1ccc(NC(=O)c2ccc(C(=O)Nc3ccc(C(=NC)NCc4ccccc4)cc3)c(Cl)c2)cc1`, the survivor count (T/C endpoint: mean survival time, dose: 16.0 mg/kg/injection, schedule: Q01DX Z (ip), vehicle: carboxymethylcellulose (CMC)) was 0 of 6.
For `CC(C)(C#N)N=NC(C)(C)C#N`, the survivor count (T/C endpoint: mean survival time, dose: 100.0 mg/kg/injection, schedule: Q01DX009 (ip), vehicle: alcohol) was 2 of 6 and the survivor count (T/C endpoint: mean survival time, dose: 200.0 mg/kg/injection, schedule: Q04DX003 (ip), vehicle: alcohol) was 2 of 6.
`c1ccc(-c2cc[s+]s2)cc1` was tested, and the survivor count [4] was 0 of 6, the survivor count (T/C endpoint: mean survival time, dose: 100.0 mg/kg/injection, schedule: Q04DX003 (ip), vehicle: water) was 5 of 6 and the survivor count (T/C endpoint: mean survival time, dose: 200.0 mg/kg/injection, schedule: Q01DX009 (ip), vehicle: saline with Tween-80) was 0 of 6. The survivor count (T/C endpoint: mean survival time, dose: 200.0 mg/kg/injection, schedule: Q04DX003 (ip), vehicle: water) was 0 of 6, the survivor count (T/C endpoint: mean survival time, dose: 400.0 mg/kg/injection, schedule: Q01DX009 (ip), vehicle: saline with Tween-80) was 0 of 6 and the survivor count (T/C endpoint: mean survival time, dose: 400.0 mg/kg/injection, schedule: Q04DX003 (ip), vehicle: water) was 0 of 6.
In the case of `CCC(CCC(C)C1CCC2C3CC=C4CC(O)CCC4(C)C3CCC12C)C(C)C` (stereo not drawn) (tested in a mixture with another compound), the survivor count (T/C endpoint: mean survival time, dose: 100.0 mg/kg/injection, schedule: Q01DX001 (ip), vehicle: water) is reported as 2 of 6, the survivor count [4] is reported as 2 of 6 and the survivor count (T/C endpoint: mean survival time, dose: 100.0 mg/kg/injection, schedule: Q#A X030 (ip), vehicle: water) is reported as 0 of 6. For the same molecule, the survivor count [2] was 4 of 6 and the survivor count (T/C endpoint: mean survival time, dose: 400.0 mg/kg/injection, schedule: Q04DX003 (ip), vehicle: saline with Tween-80) was 1 of 6.
In the case of `O=P(c1ccccc1)(c1ccccc1)C(Nc1ccc(Cl)cc1)c1ccco1` (stereo not drawn), the survivor count (T/C endpoint: mean survival time, dose: 100.0 mg/kg/injection, schedule: Q01DX009 (ip), vehicle: gum acacia) is reported as 6 of 6 and the survivor count (T/C endpoint: mean survival time, dose: 200.0 mg/kg/injection, schedule: Q01DX009 (ip), vehicle: gum acacia) is reported as 6 of 6.
In the case of `O=S(=O)(CCCl)Cc1ccc(Cl)cc1`, the survivor count (T/C endpoint: mean survival time, dose: 400.0 mg/kg/injection, schedule: Q04DX002 (ip), vehicle: Klucel (hydroxypropylcellulose) (HPC)) is reported as 3 of 3.
In the case of `O=NN(CCCl)C(=O)Nc1ccc(Cn2cnc3c(=O)[nH]cnc32)cc1`, the T/C (T/C endpoint: mean survival time, dose: 2.0 mg/kg/injection, schedule: Q01DX009 (ip), vehicle: other) is reported as 138 % of control, the T/C (T/C endpoint: mean survival time, dose: 3.0 mg/kg/injection, schedule: Q01DX009 (ip), vehicle: other) is reported as 128 % of control and the T/C (T/C endpoint: mean survival time, dose: 23.0 mg/kg/injection, schedule: Q01DX001 (ip), vehicle: other) is reported as 148 % of control. The T/C (T/C endpoint: mean survival time, dose: 93.0 mg/kg/injection, schedule: Q01DX001 (ip), vehicle: other) was 126 % of control, the survivor count (T/C endpoint: mean survival time, dose: 187.0 mg/kg/injection, schedule: Q01DX001 (ip), vehicle: other) was 9 of 10 and the survivor count (T/C endpoint: mean survival time, dose: 250.0 mg/kg/injection, schedule: Q01DX001 (ip), vehicle: other) was 6 of 10. For the same molecule, the survivor count (T/C endpoint: mean survival time, dose: 375.0 mg/kg/injection, schedule: Q01DX001 (ip), vehicle: other) was 1 of 10.
`C1CCC2C(C1)C2(N1CCCC1)N1CCCC1` (stereo not drawn) was tested, and the survivor count (T/C endpoint: mean survival time, dose: 50.0 mg/kg/injection, schedule: Q01DX009 (ip), vehicle: Klucel (hydroxypropylcellulose) (HPC)) was 5 of 6, the survivor count (T/C endpoint: mean survival time, dose: 100.0 mg/kg/injection, schedule: Q01DX009 (ip), vehicle: Klucel (hydroxypropylcellulose) (HPC)) was 0 of 6 and the survivor count (T/C endpoint: mean survival time, dose: 100.0 mg/kg/injection, schedule: Q04DX003 (ip), vehicle: Klucel (hydroxypropylcellulose) (HPC)) was 4 of 6. For the same molecule, the survivor count [5] was 0 of 6 and the survivor count (T/C endpoint: mean survival time, dose: 400.0 mg/kg/injection, schedule: Q04DX003 (ip), vehicle: Klucel (hydroxypropylcellulose) (HPC)) was 0 of 6.
With `CCN(CC)CCCC(C)NCCCN` (stereo not drawn) the survivor count (T/C endpoint: mean survival time, dose: 400.0 mg/kg/injection, schedule: Q01DX009 (ip), vehicle: saline) was 0 of 6 and the survivor count [1] was 2 of 6.
For `c1ccc(SCN(CSc2ccccc2)c2ccccc2)cc1`, the survivor count (T/C endpoint: mean survival time, dose: 400.0 mg/kg/injection, schedule: Q01DX009 (ip), vehicle: Klucel (hydroxypropylcellulose) (HPC)) was 0 of 6.
For `Nc1nc2nc[nH]c2c(N)c1Br` (tested in a mixture with another compound), the survivor count [3] was 3 of 6.
In the case of `CC1=NC(C)=C(C)C1(C)C`, the survivor count (T/C endpoint: mean survival time, dose: 100.0 mg/kg/injection, schedule: Q04DX002 (ip), vehicle: saline with Tween-80) is reported as 0 of 3, the survivor count (T/C endpoint: mean survival time, dose: 200.0 mg/kg/injection, schedule: Q04DX002 (ip), vehicle: saline with Tween-80) is reported as 1 of 3 and the survivor count [6] is reported as 1 of 3.
`CCCCc1cn(C(C)=O)nn1` was tested, and the survivor count [6] was 1 of 3.
For `NC1(C(=O)O)CCc2ccccc2C1` (stereo not drawn), the survivor count [5] was 6 of 6.
`CCNS(=O)(=O)c1ncnc2nc[nH]c12` was tested, and the T/C (T/C endpoint: mean survival time, dose: 100.0 mg/kg/injection, schedule: Q01DX Z (ip), vehicle: carboxymethylcellulose (CMC)) was 127 % of control and the T/C (T/C endpoint: mean survival time, dose: 150.0 mg/kg/injection, schedule: Q01DX Z (ip), vehicle: carboxymethylcellulose (CMC)) was 141 % of control.

Reference: PubChem BioAssay AID248 (DTP/NCI, 2004)
